According to article PMC12847774, “SERPINB3 enhances NPM1 sumoylation via inhibiting SENP3’s activity and promotes lung tumorigenesis” (Cell Death & Disease, 2025):
No constants are given. Whether binding was seen depends on the method and setting. Binding seen in cells or lysates may run through a third protein. These calls come from enrichment with a bait or labelling near it, and not all partners need be listed. Sequences can lack the tags named with a protein.

Chains of the proteins cited; added tags and fusions are not shown.
UniProt P06748: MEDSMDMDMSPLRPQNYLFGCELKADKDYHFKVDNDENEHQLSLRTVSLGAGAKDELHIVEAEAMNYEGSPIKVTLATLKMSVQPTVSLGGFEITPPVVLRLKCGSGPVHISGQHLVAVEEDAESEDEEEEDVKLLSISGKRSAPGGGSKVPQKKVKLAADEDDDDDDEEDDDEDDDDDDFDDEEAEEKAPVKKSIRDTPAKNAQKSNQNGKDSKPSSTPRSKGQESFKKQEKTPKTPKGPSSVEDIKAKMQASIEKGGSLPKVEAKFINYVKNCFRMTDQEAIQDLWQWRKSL

Target: T1, Flag-BirA-SERPINB3 (UniProt P29508)
T1 sequence: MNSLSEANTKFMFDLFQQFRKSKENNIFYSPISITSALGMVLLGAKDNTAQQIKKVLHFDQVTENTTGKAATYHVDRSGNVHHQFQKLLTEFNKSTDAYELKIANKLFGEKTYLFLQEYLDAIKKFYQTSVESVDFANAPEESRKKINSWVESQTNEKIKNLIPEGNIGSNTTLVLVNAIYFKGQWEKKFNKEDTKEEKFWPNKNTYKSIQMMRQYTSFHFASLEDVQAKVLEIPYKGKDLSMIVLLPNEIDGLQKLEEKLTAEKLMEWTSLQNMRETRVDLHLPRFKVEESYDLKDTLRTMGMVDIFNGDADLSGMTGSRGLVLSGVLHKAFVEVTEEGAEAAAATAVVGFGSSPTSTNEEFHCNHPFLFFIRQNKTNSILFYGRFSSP
Test: proximity labelling; Bio-ID in PC9 cells stably expressing Flag-BirA-SERPINB3, 50 uM biotin for 24 h; RIPA lysis, streptavidin Dynabeads, mass spectrometry

- binding: binds
Substance: nucleophosmin (NPM1), endogenous (from UniProt P06748 1-294)
